Laboratory results reported in the supplement of paper PMC10849652.
The list shows a part of the results.

By UniProt entry, the sequences of proteins in these tests, tags left out. Where a name states a change or a piece, a line headed by the entry shows the natural chain unless it says otherwise.
UniProt Q7KZF4: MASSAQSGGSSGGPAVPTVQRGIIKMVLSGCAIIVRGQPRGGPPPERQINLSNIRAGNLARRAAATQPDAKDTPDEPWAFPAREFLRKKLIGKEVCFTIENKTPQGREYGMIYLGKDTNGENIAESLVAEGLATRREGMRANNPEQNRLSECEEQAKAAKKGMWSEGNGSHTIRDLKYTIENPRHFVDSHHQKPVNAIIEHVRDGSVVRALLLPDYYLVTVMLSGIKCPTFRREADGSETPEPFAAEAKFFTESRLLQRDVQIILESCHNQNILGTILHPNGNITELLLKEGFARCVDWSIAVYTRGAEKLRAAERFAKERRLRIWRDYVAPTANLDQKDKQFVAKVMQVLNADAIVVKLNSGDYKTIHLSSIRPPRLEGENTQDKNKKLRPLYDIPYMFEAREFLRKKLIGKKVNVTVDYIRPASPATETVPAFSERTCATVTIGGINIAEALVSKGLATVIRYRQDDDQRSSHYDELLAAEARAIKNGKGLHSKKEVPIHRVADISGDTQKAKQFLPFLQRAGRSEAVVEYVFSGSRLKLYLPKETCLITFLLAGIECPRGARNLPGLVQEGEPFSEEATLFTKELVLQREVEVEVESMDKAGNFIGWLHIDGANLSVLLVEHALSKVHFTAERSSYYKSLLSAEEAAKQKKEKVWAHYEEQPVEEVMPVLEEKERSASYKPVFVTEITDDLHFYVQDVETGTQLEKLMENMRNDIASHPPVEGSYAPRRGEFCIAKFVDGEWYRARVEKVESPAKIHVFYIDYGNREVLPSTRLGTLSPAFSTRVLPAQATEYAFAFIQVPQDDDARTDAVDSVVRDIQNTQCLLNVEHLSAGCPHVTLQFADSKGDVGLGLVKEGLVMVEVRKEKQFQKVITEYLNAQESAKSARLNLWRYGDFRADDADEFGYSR
UniProt Q9Y5X2: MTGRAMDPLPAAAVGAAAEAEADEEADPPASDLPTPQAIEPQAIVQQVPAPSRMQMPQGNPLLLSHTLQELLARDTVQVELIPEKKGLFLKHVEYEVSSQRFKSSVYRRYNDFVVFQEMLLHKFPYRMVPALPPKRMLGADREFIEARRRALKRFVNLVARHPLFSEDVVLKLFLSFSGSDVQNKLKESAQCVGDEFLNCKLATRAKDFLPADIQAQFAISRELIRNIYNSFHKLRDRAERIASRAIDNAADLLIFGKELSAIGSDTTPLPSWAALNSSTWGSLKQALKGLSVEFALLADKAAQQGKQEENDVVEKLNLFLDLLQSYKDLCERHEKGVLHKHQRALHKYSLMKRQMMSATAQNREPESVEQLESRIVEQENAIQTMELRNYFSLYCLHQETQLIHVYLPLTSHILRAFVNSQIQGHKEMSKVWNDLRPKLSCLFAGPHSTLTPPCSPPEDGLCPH
UniProt Q9NRG4: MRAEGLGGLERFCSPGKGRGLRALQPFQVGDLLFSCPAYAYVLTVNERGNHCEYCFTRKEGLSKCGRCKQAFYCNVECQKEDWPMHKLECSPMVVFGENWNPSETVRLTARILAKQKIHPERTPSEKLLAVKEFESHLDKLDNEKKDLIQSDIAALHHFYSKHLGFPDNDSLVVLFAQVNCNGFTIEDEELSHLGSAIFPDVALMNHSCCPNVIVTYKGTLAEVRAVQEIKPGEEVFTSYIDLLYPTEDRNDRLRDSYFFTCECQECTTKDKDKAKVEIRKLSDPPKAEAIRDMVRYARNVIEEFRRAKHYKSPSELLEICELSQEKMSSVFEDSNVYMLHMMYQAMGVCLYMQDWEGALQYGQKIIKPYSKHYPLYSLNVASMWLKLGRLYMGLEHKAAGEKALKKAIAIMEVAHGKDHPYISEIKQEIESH
UniProt Q969G3, whole entry, looked up: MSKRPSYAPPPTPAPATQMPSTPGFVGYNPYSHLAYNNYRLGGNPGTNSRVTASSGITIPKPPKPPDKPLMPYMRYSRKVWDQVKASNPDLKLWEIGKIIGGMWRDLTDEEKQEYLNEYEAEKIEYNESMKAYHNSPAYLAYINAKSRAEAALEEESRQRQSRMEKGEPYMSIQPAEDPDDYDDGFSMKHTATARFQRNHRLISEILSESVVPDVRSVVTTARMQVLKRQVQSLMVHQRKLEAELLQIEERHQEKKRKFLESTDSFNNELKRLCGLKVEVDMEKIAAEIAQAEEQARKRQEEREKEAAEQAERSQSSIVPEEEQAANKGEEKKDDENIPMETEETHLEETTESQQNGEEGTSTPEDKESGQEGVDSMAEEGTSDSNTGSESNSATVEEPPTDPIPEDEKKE
UniProt Q9Y5X3: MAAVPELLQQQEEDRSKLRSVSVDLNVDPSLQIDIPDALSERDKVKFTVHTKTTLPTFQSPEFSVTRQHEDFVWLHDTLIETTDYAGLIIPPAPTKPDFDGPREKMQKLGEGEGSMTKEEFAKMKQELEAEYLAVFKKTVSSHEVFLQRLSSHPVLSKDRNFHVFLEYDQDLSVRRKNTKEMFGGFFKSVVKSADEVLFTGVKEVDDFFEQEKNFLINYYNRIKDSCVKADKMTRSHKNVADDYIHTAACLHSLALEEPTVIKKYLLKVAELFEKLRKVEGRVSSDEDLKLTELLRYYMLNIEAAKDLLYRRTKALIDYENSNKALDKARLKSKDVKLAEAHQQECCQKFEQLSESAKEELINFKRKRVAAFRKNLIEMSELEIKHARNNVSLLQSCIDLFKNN
UniProt P62314, whole entry, looked up: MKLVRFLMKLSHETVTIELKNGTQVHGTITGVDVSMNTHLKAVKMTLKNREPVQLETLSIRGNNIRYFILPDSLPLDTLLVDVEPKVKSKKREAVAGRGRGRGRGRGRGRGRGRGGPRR
UniProt Q92925, whole entry, looked up: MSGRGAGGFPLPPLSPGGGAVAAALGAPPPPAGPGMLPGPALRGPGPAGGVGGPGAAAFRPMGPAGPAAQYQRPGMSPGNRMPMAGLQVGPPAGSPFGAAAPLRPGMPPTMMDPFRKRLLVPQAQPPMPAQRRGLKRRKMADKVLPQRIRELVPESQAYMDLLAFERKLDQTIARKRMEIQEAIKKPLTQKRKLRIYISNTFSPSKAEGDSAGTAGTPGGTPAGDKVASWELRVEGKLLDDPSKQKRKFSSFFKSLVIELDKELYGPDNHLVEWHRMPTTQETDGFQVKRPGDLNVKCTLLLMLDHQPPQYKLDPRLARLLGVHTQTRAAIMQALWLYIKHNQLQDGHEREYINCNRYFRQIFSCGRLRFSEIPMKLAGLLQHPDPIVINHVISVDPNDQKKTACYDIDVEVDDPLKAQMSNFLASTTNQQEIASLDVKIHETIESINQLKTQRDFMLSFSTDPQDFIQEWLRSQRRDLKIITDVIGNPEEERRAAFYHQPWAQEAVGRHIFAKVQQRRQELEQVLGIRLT
UniProt Q9BX66: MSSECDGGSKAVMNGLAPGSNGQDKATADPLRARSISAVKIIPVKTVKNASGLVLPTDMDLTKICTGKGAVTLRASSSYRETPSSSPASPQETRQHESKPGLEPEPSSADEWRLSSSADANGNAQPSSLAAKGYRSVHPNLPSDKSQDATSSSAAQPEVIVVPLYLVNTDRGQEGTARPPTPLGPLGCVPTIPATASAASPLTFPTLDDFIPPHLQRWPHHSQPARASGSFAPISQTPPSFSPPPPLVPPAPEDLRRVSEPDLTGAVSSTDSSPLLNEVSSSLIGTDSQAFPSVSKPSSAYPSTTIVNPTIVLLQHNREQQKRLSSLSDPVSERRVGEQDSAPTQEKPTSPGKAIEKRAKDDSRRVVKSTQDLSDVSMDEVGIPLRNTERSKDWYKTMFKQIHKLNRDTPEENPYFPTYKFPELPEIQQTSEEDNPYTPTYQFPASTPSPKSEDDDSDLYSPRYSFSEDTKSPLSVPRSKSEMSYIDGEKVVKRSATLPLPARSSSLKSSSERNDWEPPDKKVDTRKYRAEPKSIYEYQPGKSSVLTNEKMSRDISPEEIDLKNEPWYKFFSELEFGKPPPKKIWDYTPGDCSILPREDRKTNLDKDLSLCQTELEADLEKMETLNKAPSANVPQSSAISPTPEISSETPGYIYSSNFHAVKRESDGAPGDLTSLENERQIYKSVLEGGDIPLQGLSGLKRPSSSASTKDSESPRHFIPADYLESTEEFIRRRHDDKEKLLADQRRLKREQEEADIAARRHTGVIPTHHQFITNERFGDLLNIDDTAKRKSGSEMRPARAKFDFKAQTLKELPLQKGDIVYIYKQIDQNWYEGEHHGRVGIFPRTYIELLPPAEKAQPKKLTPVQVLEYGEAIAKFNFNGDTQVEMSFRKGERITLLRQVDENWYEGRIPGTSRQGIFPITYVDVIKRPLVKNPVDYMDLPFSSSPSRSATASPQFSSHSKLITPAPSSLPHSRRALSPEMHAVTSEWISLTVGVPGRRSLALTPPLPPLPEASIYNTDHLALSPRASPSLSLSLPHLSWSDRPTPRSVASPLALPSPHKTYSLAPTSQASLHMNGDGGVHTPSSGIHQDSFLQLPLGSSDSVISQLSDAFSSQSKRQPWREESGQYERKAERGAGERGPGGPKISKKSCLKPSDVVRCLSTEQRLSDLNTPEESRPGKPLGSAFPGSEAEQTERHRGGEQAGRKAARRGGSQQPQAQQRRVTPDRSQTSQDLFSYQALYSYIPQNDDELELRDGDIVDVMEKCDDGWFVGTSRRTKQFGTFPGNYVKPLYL
UniProt P55769: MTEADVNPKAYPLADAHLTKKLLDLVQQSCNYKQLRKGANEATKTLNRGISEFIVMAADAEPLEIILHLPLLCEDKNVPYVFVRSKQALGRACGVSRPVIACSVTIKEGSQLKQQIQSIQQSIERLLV
UniProt O60749: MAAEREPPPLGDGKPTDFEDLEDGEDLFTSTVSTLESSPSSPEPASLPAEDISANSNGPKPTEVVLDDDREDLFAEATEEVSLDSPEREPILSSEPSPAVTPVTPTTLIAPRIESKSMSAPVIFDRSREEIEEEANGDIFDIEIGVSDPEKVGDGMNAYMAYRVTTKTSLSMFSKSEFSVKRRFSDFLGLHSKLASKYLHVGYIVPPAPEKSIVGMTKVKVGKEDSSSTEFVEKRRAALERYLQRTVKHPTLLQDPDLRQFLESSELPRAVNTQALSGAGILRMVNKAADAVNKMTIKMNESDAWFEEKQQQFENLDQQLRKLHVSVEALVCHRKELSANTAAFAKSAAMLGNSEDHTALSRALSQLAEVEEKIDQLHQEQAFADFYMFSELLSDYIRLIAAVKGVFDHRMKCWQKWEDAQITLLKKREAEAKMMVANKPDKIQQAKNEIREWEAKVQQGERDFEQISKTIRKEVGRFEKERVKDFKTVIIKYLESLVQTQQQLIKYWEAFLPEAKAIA
UniProt Q92922, whole entry, looked up: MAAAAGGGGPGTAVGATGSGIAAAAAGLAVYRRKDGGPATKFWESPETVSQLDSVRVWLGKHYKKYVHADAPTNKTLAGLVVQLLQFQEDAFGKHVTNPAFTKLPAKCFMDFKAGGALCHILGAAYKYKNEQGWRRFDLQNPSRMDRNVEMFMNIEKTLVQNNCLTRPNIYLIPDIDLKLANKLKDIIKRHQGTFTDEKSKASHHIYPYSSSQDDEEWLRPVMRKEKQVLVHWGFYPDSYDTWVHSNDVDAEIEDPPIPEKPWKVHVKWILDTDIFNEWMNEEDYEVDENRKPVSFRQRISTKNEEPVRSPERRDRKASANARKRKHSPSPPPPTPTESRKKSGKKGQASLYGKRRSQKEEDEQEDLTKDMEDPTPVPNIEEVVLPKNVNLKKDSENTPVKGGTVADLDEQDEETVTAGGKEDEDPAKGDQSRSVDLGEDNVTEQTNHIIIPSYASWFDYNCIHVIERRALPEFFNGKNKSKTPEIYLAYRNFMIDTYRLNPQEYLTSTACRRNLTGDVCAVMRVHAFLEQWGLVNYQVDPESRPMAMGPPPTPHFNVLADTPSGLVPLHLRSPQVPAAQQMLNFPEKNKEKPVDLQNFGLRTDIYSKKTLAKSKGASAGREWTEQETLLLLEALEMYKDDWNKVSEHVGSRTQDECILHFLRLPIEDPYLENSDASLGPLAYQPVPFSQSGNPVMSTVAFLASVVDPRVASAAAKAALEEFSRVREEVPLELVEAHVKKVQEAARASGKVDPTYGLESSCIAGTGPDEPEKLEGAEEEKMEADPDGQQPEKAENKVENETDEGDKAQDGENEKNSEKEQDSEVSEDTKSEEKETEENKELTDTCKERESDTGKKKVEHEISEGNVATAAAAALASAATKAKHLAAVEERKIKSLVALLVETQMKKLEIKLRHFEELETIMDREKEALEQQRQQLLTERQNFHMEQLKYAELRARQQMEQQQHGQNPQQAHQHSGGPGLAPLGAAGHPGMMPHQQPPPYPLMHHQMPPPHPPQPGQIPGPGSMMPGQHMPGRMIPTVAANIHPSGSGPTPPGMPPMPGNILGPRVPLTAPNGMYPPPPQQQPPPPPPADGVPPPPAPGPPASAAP
UniProt Q8WVK2: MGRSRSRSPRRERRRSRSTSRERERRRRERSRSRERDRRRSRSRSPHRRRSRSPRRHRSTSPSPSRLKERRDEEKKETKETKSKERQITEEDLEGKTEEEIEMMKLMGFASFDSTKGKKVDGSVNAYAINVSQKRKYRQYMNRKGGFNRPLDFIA

Columns and labels:
Assay in all cases: log2 fold change, soluble protein after heating vs DMSO (PISA); higher = thermal stabilisation; K562 lysate, 10 uM; active = over 0.2 and 3.5 SD of the protein, either way, in both replicates (recomputed)
lapatinib = compound: CS(=O)(=O)CCNCc1ccc(-c2ccc3ncnc(Nc4ccc(OCc5cccc(F)c5)c(Cl)c4)c3c2)o1 [lapatinib]
Procedure, shortened: (§1)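 Quantification was by TMTpro 16plex LC-MS/MS with equalised channel sums, applied to the supernatant after 21,000xg for 90 min. Samples were crude K562 extract at 1 mg/mL protein in PBS pH 7.4 with 1 mM MgCl2, treated with 10 μM compound for 30 min, heated for 3 min across 48°C-58°C, pooled and brought to 0.5% NP-40 at 4°C. Values are log-two fold changes in thermal stability relative to solvent controls, from duplicates.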

pictilisib = compound: CS(=O)(=O)N1CCN(Cc2cc3nc(-c4cccc5[nH]ncc45)nc(N4CCOCC4)c3s2)CC1 [pictilisib]
Procedure, shortened: as §1

crizotinib = compound: C[C@@H](Oc1cc(-c2cnn(C3CCNCC3)c2)cnc1N)c1c(Cl)ccc(F)c1Cl [crizotinib]
Procedure, shortened: as §1

[1] = compound: C[C@H](C1=CC=C(C=C1)C(=O)NC2=C3C=CNC3=NC=C2)N
Procedure, shortened: as §1

duvelisib = compound: C[C@H](Nc1ncnc2nc[nH]c12)c1cc2cccc(Cl)c2c(=O)n1-c1ccccc1 [duvelisib]
Procedure, shortened: as §1

gandotinib = compound: Cc1cc(Nc2cc(CN3CCOCC3)c3nc(C)c(Cc4ccc(Cl)cc4F)n3n2)n[nH]1 [gandotinib]
Procedure, shortened: as §1

tozasertib = compound: Cc1cc(Nc2cc(N3CCN(C)CC3)nc(Sc3ccc(NC(=O)C4CC4)cc3)n2)n[nH]1 [tozasertib]
Procedure, shortened: as §1

doramapimod = compound: Cc1ccc(-n2nc(C(C)(C)C)cc2NC(=O)Nc2ccc(OCCN3CCOCC3)c3ccccc23)cc1 [doramapimod]
Procedure, shortened: as §1

bafetinib = compound: Cc1ccc(NC(=O)c2ccc(CN3CC[C@H](N(C)C)C3)c(C(F)(F)F)c2)cc1Nc1nccc(-c2cncnc2)n1 [bafetinib]
Procedure, shortened: as §1

[2] = compound: Cc1cccc(CC(=O)N2CCc3c2ccc(-c2cn(C)c4ncnc(N)c24)c3F)n1
Procedure, shortened: as §1

nilotinib = compound: Cc1cn(-c2cc(NC(=O)c3ccc(C)c(Nc4nccc(-c5cccnc5)n4)c3)cc(C(F)(F)F)c2)cn1 [nilotinib]
Procedure, shortened: as §1

[3] = compound: Cc1nc(Nc2n[nH]c3c2CN(C(=O)N[C@H](CN(C)C)c2ccccc2)C3(C)C)c2sccc2n1
Procedure, shortened: as §1

dasatinib = compound: Cc1nc(Nc2ncc(C(=O)Nc3c(C)cccc3Cl)s2)cc(N2CCN(CCO)CC2)n1 [dasatinib]
Procedure, shortened: as §1

[4] = compound: Cc1ncc(-c2ccnc(Nc3ccc(S(C)(=O)=O)cc3)n2)n1C(C)C
Procedure, shortened: as §1

[5] = compound: Cn1cc(-c2ccc3c(c2)CCN3C(=O)Cc2cccc(C(F)(F)F)c2)c2c(N)ncnc21
Procedure, shortened: as §1

quisinostat = compound: Cn1cc(CNCC2CCN(c3ncc(C(=O)NO)cn3)CC2)c2ccccc21 [quisinostat]
Procedure, shortened: as §1

tipifarnib = compound: Cn1cncc1[C@@](N)(c1ccc(Cl)cc1)c1ccc2c(c1)c(-c1cccc(Cl)c1)cc(=O)n2C [tipifarnib]
Procedure, shortened: as §1

[6] = compound: NC(=O)Nc1cc(-c2cccc(F)c2)sc1C(=O)N[C@H]1CCCNC1
Procedure, shortened: as §1

[7] = compound: NC(=O)c1cnc(N[C@@H]2CCCC[C@@H]2N)nc1Nc1cccc(-n2nccn2)c1
Procedure, shortened: as §1

[8] = compound: NC1(c2ccc(-c3nc4ccn5c(=O)[nH]nc5c4cc3-c3ccccc3)cc2)CCC1
Procedure, shortened: as §1

Row | Target | log2 fold change (lapatinib) | log2 fold change (pictilisib) | log2 fold change (crizotinib) | log2 fold change [1] | log2 fold change (duvelisib) | log2 fold change (gandotinib) | log2 fold change (tozasertib) | log2 fold change (doramapimod) | log2 fold change (bafetinib) | log2 fold change [2] | log2 fold change (nilotinib) | log2 fold change [3] | log2 fold change (dasatinib) | log2 fold change [4] | log2 fold change [5] | log2 fold change (quisinostat) | log2 fold change (tipifarnib) | log2 fold change [6] | log2 fold change [7] | log2 fold change [8]
1 | SND1 (UniProt Q7KZF4) | inactive: -0.008 | inactive: -0.012 | inactive: -0.034 | inactive: 0.077 | inactive: 0.008 | inactive: -0.108 | inactive: 0 | inactive: 0.034 | inactive: -0.028 | inactive: -0.009 | inactive: -0.008 | inactive: -0.011 | inactive: -0.028 | inactive: -0.024 | inactive: 0.038 | inactive: -0.033 | inactive: -0.003 | inactive: 0.05 | inactive: -0.007 | inactive: -0.017
2 | SNX8 (UniProt Q9Y5X2) | inactive: 0.006 | inactive: -0.004 | inactive: -0.007 | inactive: -0.029 | inactive: 0.016 | inactive: 0.031 | inactive: 0.027 | inactive: -0.015 | inactive: -0.035 | inactive: 0.034 | inactive: 0.038 | inactive: -0.016 | inactive: 0.022 | inactive: 0.012 | inactive: 0.012 | inactive: -0.071 | inactive: 0.023 | inactive: 0.039 | inactive: 0.003 | inactive: -0.012
3 | SMYD2 (UniProt Q9NRG4) | inactive: -0.03 | inactive: 0.009 | inactive: -0.005 | inactive: 0.046 | inactive: 0.011 | inactive: 0 | inactive: 0.012 | inactive: 0.02 | inactive: 0.008 | inactive: -0.038 | inactive: 0.053 | inactive: 0.013 | inactive: -0.051 | inactive: 0.027 | inactive: -0.064 | inactive: 0.055 | inactive: 0.045 | inactive: 0.009 | inactive: 0.06 | inactive: 0.063
4 | SMARCE1 (UniProt Q969G3) | inactive: 0.007 | inactive: -0.004 | inactive: 0.034 | inactive: 0.048 | inactive: -0.027 | inactive: -0.059 | inactive: 0.015 | inactive: 0 | inactive: -0.004 | inactive: -0.055 | inactive: 0.014 | inactive: 0.03 | inactive: -0.055 | inactive: 0 | inactive: 0.001 | inactive: 0.079 | inactive: 0.014 | inactive: -0.007 | inactive: -0.001 | inactive: -0.005
5 | SNX5 (UniProt Q9Y5X3) | inactive: 0.014 | inactive: 0.014 | inactive: 0.034 | inactive: 0.061 | inactive: -0.006 | inactive: -0.009 | inactive: 0 | inactive: 0.02 | inactive: -0.011 | inactive: -0.038 | inactive: -0.012 | inactive: 0.007 | inactive: -0.004 | inactive: 0.005 | inactive: 0.015 | inactive: 0.041 | inactive: 0 | inactive: 0.005 | inactive: -0.004 | inactive: 0.033
6 | SNRPD1 (UniProt P62314) | inactive: -0.037 | inactive: -0.055 | inactive: -0.014 | inactive: 0.005 | inactive: 0.009 | inactive: 0.027 | inactive: 0.004 | inactive: -0.037 | inactive: -0.026 | inactive: -0.018 | inactive: 0.013 | inactive: -0.015 | inactive: -0.045 | inactive: -0.014 | inactive: -0.065 | inactive: -0.025 | inactive: -0.009 | inactive: 0.026 | inactive: -0.083 | inactive: 0.001
7 | SMARCD2 (UniProt Q92925) | inactive: -0.027 | inactive: -0.051 | inactive: -0.004 | inactive: -0.069 | inactive: 0.032 | inactive: -0.002 | inactive: 0.027 | inactive: -0.034 | inactive: 0 | inactive: 0.046 | inactive: 0.018 | inactive: -0.018 | inactive: -0.06 | inactive: 0.01 | inactive: 0.017 | inactive: 0.01 | inactive: 0.001 | inactive: 0.017 | inactive: -0.015 | inactive: 0.043
8 | SORBS1 isoform 8 (UniProt Q9BX66) | inactive: 0.031 | inactive: 0.021 | inactive: 0.029 | inactive: 0.015 | inactive: -0.018 | inactive: 0.038 | inactive: 0.022 | inactive: 0.029 | inactive: 0.011 | inactive: -0.005 | inactive: 0.015 | inactive: -0.012 | inactive: 0.008 | inactive: 0.029 | inactive: 0.017 | inactive: -0.02 | inactive: 0.029 | inactive: -0.019 | inactive: 0.023 | inactive: -0.027
9 | SNU13 (UniProt P55769) | inactive: 0.041 | inactive: 0.022 | inactive: -0.007 | inactive: 0.049 | inactive: 0.006 | inactive: -0.026 | inactive: -0.015 | inactive: -0.016 | inactive: 0.007 | inactive: -0.015 | inactive: -0.007 | inactive: 0.015 | inactive: 0.017 | inactive: 0.044 | inactive: -0.012 | inactive: -0.013 | inactive: 0.04 | inactive: 0.008 | inactive: -0.034 | inactive: 0.041
10 | SNX2 (UniProt O60749) | inactive: -0.038 | inactive: -0.003 | inactive: -0.038 | inactive: -0.023 | inactive: -0.035 | inactive: -0.058 | inactive: -0.014 | inactive: -0.06 | inactive: -0.024 | inactive: -0.017 | inactive: 0.003 | inactive: -0.01 | inactive: -0.026 | inactive: 0.013 | inactive: 0.03 | inactive: 0.044 | inactive: 0.003 | inactive: 0.01 | inactive: -0.004 | inactive: 0.021
11 | SOAT1 (UniProt P35610) | inactive: 0.027 | inactive: -0.004 | inactive: -0.022 | inactive: -0.079 | inactive: -0.016 | inactive: 0.005 | inactive: 0.009 | inactive: 0.157 | inactive: 0.029 | inactive: 0.141 | active: 0.313 | inactive: -0.019 | inactive: 0.071 | inactive: -0.065 | inactive: -0.022 | inactive: -0.12 | inactive: 0.072 | inactive: -0.042 | inactive: 0.045 | inactive: -0.013
12 | SMARCC1 (UniProt Q92922) | inactive: 0.007 | inactive: -0.022 | inactive: -0.028 | inactive: -0.033 | inactive: -0.017 | inactive: -0.016 | inactive: -0.018 | inactive: -0.025 | inactive: -0.015 | inactive: 0.029 | inactive: 0.014 | inactive: 0.01 | inactive: -0.007 | inactive: 0.027 | inactive: 0.005 | inactive: -0.004 | inactive: -0.006 | inactive: 0.025 | inactive: 0 | inactive: 0.012
13 | SMG1 (UniProt Q96Q15) | inactive: -0.025 | inactive: -0.05 | inactive: -0.019 | inactive: 0.002 | inactive: 0.003 | inactive: -0.105 | inactive: 0.024 | inactive: 0.015 | inactive: -0.057 | inactive: 0.049 | inactive: -0.029 | inactive: 0.026 | inactive: -0.021 | inactive: 0.038 | inactive: 0.006 | inactive: -0.05 | inactive: -0.028 | inactive: 0.061 | inactive: 0 | inactive: -0.032
14 | SNRPB isoform 3 (UniProt P14678) | inactive: -0.013 | inactive: -0.065 | inactive: 0.056 | inactive: -0.041 | inactive: 0.019 | inactive: 0.124 | inactive: -0.068 | inactive: -0.05 | inactive: 0.11 | inactive: 0.044 | inactive: 0.065 | inactive: -0.042 | inactive: 0.031 | inactive: -0.035 | inactive: -0.023 | inactive: 0.095 | inactive: 0.043 | inactive: -0.035 | inactive: -0.052 | inactive: 0.034
15 | SNRNP27 (UniProt Q8WVK2) | inactive: -0.006 | inactive: 0 | inactive: -0.069 | inactive: 0.026 | inactive: 0.015 | inactive: -0.022 | inactive: -0.002 | inactive: 0.077 | inactive: 0.1 | inactive: -0.067 | inactive: -0.012 | inactive: -0.007 | inactive: 0.009 | inactive: 0.007 | inactive: 0.079 | inactive: -0.139 | inactive: 0.032 | inactive: 0.033 | inactive: -0.007 | inactive: 0.017
16 | SNAP91 (UniProt O60641) | inactive: 0.064 | inactive: -0.002 | inactive: 0.011 | inactive: -0.011 | inactive: -0.001 | inactive: 0.013 | inactive: 0.013 | inactive: 0.123 | inactive: -0.023 | inactive: 0.053 | inactive: -0.036 | inactive: 0.002 | inactive: 0.011 | inactive: -0.052 | inactive: 0.056 | inactive: 0.011 | inactive: -0.081 | inactive: -0.045 | inactive: 0.114 | inactive: 0.013

Part of the list above, reformatted.
Row	Target	log2 fold change (lapatinib)	log2 fold change (pictilisib)	log2 fold change (crizotinib)	log2 fold change [1]	log2 fold change (duvelisib)	log2 fold change (gandotinib)	log2 fold change (tozasertib)	log2 fold change (doramapimod)	log2 fold change (bafetinib)	log2 fold change [2]	log2 fold change (nilotinib)	log2 fold change [3]	log2 fold change (dasatinib)	log2 fold change [4]	log2 fold change [5]	log2 fold change (quisinostat)	log2 fold change (tipifarnib)	log2 fold change [6]	log2 fold change [7]	log2 fold change [8]
2	SNX8 (UniProt Q9Y5X2)	inactive: 0.006	inactive: -0.004	inactive: -0.007	inactive: -0.029	inactive: 0.016	inactive: 0.031	inactive: 0.027	inactive: -0.015	inactive: -0.035	inactive: 0.034	inactive: 0.038	inactive: -0.016	inactive: 0.022	inactive: 0.012	inactive: 0.012	inactive: -0.071	inactive: 0.023	inactive: 0.039	inactive: 0.003	inactive: -0.012
3	SMYD2 (UniProt Q9NRG4)	inactive: -0.03	inactive: 0.009	inactive: -0.005	inactive: 0.046	inactive: 0.011	inactive: 0	inactive: 0.012	inactive: 0.02	inactive: 0.008	inactive: -0.038	inactive: 0.053	inactive: 0.013	inactive: -0.051	inactive: 0.027	inactive: -0.064	inactive: 0.055	inactive: 0.045	inactive: 0.009	inactive: 0.06	inactive: 0.063
